Source: PMC8863773
No constants are given. Whether binding was seen depends on the method and setting. In cells and extracts the contact can be indirect. Some binding calls cover weakened binding; strength is not graded here. For part of these data: Sequences can lack the tags named with a protein.

Protein sequences, listed by entry. Tags and fused reporters are not part of them.
UniProt Q14790: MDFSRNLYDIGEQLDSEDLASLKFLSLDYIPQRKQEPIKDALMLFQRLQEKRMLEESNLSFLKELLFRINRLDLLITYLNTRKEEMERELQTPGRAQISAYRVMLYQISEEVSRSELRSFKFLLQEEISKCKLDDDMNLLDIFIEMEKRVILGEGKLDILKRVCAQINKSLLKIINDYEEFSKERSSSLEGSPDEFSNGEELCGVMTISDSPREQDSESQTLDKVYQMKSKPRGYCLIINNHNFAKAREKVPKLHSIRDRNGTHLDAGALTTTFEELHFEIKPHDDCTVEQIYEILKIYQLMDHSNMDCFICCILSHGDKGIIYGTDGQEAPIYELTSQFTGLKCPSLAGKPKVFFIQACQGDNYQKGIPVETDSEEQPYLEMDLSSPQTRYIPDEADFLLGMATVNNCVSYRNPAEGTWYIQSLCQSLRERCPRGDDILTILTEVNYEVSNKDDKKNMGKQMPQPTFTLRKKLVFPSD
UniProt Q13263: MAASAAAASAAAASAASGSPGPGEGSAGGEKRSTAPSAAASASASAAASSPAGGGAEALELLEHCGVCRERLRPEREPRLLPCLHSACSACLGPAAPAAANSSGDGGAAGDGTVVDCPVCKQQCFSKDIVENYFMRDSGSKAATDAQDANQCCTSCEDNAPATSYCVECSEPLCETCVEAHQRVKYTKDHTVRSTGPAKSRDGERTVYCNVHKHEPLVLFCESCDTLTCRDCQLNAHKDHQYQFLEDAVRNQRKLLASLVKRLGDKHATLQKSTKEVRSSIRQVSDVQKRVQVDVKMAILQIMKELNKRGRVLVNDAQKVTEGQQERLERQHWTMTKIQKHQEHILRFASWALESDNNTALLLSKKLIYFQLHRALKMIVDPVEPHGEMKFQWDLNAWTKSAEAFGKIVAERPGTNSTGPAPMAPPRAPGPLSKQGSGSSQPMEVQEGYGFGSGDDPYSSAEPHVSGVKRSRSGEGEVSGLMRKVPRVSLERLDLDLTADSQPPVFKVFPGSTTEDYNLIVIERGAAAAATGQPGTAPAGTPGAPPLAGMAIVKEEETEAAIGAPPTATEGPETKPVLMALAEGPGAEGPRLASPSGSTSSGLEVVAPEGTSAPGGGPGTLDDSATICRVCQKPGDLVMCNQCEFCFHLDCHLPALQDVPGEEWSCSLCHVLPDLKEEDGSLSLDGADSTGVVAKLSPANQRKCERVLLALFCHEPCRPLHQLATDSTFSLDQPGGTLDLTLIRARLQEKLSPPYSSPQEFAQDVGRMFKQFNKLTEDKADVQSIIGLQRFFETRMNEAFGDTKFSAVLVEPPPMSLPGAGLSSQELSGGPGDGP
UniProt Q13546: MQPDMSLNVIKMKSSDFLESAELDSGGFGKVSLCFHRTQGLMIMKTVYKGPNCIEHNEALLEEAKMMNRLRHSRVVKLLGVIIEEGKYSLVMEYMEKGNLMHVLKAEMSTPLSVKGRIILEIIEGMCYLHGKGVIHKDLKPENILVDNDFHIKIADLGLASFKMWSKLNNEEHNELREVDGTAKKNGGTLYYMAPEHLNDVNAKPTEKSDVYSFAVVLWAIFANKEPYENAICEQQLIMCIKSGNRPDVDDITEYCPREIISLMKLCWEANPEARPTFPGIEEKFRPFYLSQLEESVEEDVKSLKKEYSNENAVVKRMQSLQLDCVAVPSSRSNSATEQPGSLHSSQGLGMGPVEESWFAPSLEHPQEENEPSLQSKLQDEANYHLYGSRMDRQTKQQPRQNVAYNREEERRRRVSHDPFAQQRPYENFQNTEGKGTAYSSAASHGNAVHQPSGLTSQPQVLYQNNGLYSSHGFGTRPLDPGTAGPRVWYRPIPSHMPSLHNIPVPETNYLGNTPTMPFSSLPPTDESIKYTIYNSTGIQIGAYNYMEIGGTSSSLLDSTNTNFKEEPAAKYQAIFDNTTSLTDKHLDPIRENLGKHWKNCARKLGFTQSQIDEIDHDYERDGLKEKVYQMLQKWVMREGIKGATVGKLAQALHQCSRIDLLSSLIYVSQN

Assays:
[1] = biological target: pro-caspase-8 (human (endogenous in WM1158)) (UniProt Q14790); assay: co-IP; caspase-8 p18 antibody on protein G agarose; WM1158 TetR-GFP-hUsp27xL cells, 24 h or 48 h doxycycline, with or without TNF; DISC lysis buffer, 4 h at 4 °C; Western blot (Fig. 5B)
[2] = biological target: T1, GFP-mUsp27xS (murine Usp27xS, 438 aa) (mouse) (UniProt Q8CEG8); assay: co-IP; GFP-IP from 1205Lu cells overexpressing GFP-mUsp27xS; data not shown
T1 sequence: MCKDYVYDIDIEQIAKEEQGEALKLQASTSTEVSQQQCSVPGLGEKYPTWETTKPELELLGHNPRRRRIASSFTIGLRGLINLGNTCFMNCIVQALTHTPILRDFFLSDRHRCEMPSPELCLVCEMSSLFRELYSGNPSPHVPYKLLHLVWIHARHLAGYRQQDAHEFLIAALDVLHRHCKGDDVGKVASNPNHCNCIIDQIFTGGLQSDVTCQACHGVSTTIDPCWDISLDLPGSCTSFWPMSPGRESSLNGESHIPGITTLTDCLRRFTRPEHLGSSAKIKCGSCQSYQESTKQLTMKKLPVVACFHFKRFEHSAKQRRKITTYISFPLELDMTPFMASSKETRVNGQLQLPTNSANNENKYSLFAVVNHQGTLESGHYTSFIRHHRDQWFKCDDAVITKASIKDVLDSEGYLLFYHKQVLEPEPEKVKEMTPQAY

[3] = biological target: T2, 3xFlag-mUsp27xS (murine Usp27xS, 438 aa) (mouse) (UniProt Q8CEG8); assay: co-IP; 293FT cells inducibly expressing hUsp27xL or mUsp27xS, stimulated with PMA; DISC lysis buffer; Supplementary Fig. S1A (legend not shown)
T2 sequence: T1 sequence

Substance | binding [1] | binding [2] | binding [3]
TRIM28 (from UniProt Q13263 1-835) (enzyme) | binds |  | 
RIPK1 (from UniProt Q13546 1-671) |  | binds | binds
